# Laboratory results taken from PubChem BioAssay AID493014 (National Center for Advancing Translational Sciences (NCATS), 2011).
# The campaign covered roughly 340,000 compounds. About 170 (0.05%) were called active. This list was built around the results that the source calls inconclusive (neither active nor inactive); the mix of calls is not that of the screen. The call rests on the fitted dose curve; in most records, active means well fitted inhibition curve with a large enough effect in the signal ratio, with a control signal flat (not every such curve was filed as active); inconclusive means small, poorly fitted or top-dose-only effect, or effect the other way, or a change in a side signal; inactive means flat fitted curve, though single readings scatter; the % refers to the signal ratio. A potency beside an inconclusive call is a rough fit, not a confirmed value.
# Assay: qHTS Assay to Find Inhibitors of Chronic Active B-Cell Receptor Signaling;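 on activity change, negative = inhibition: plate controls were basal doxycycline-induced cells for no effect and cells given 10 µM MG132 for full effect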
# Details: ABC-DLBCL IkBa-CBG/CBR reporter, luminescence ratio (green luciferase fused to IkBa over red control in TMD8 lymphoma cells), 4 h; activity change, negative = inhibition: at 46.1 µM (top of the series)
# Procedure, shortened: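 TMD8 ABC-DLBCL cells carrying doxycycline-inducible green luciferase fused to IkappaBalpha plus unfused red luciferase were exposed to compounds (up to 46 uM) for 4 hrs at 37C. Activity came from the overlap-corrected green/red luminescence ratio.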
# Potency means the concentration at half of the fitted maximal effect.
SMILES,"activity change, negative = inhibition",Potency
O=C(CC1CCCC1)N1CCN(S(=O)(=O)c2ccccc2)CC1,inactive,
S=c1[nH]nc(C23CC4CC(CC(C4)C2)C3)n1Cc1ccco1,,"inconclusive: 10 µM [rising, partial curve]"
O=C(Nc1nncs1)c1c(F)c(F)c(F)c(F)c1F,inactive,
Cc1nnc2sc(SCc3ccc(Cl)cc3)nn2c1=O,inconclusive: -11%,
O=S(=O)(c1ccc2c(c1)OCCO2)N1CCC(n2nnc3cc(F)ccc32)CC1,inactive,
O=S1(=O)N=C(N(CCO)/N=C/c2ccncc2)c2ccccc21,inactive,
CCNS(=O)(=O)c1c(C)cc(C)c(N(C)S(=O)(=O)c2ccccc2)c1C,inconclusive: 12.7%,
N#CC1=C(N)Oc2c(ccc3cccnc23)C1c1cccnc1 (configuration not stated),inconclusive: -10.7%,
Cc1ccc(-n2ncc3c(=O)n(-c4ccc(C)c(C)c4)c(-c4ccco4)nc32)cc1,,"inconclusive: 3.66 µM [rising, partial curve, poor fit]"
O=C(O)c1c(-c2ccccc2)c2oc3ccccc3c2[nH]c1=O,inconclusive: -18.5%,
COC(=O)c1scc(-c2ccccc2)c1S(=O)(=O)Nc1ccccc1,inconclusive: -28.8%,
Cc1ccc(NC(=O)c2ccc(Cl)c(S(=O)(=O)N3CCCCCC3)c2)nc1,inconclusive: 17.1%,
COc1ccc(NC(=O)CCN2C(=O)c3ccccc3C2=O)cc1,inconclusive: 6.3%,
Cc1ccc(N2CC(NC(=O)/C=C\c3ccc4c(c3)OCO4)CC2=O)cc1C (configuration not stated),inconclusive: 1.92%,
Cc1ccc(NC(=O)Nc2ccc3c(c2)OCO3)nc1,inconclusive: 2.93%,
Cc1ccc(C(=O)CNc2cc(C)ccc2C)cc1,inconclusive: -2.68%,
CCOc1ccc(NS(=O)(=O)c2ccc(C(=O)N(C)CC(=O)Nc3ccc(OC)cc3)cc2)cc1,inconclusive: 13.4%,
CCOc1ccc(C(c2c(NC(=O)c3ccco3)sc(C)c2C)N2CCOCC2)cc1 (configuration not stated),inactive,
COc1cccc(C(=O)Nc2cccc3cccnc23)c1OC,inconclusive: 9.45%,
Cc1ccc(OCC(=O)N2CCCCC2)c(Br)c1,inactive,
O=C(COC(=O)Cc1ccc(S(=O)(=O)N2CCOCC2)s1)NCc1ccc(Cl)cc1,,"inconclusive: 0.231 µM [rising, full curve, poor fit]"

SMILES,"activity change, negative = inhibition",Potency
Cn1c(=O)n(C)c2cc(NS(C)(=O)=O)ccc21,inconclusive: -0.326%,
CCc1nc(SCC(=O)c2ccccc2)c2ccccc2n1,,"inconclusive: 35.5 µM [falling, single point]"
CCn1c(SCC(=O)Nc2sc3c(c2C#N)CCC(C(C)(C)C)C3)nnc1-c1ccco1 (configuration not stated),inactive,
CCOc1cc(-c2sc(Nc3cc(C)ccc3OC)n[n+]2-c2ccccc2)ccc1OC,,"inconclusive: 29.1 µM [falling, single point]"
CCn1cc(CNCc2cn(C)nc2-c2ccc(C3CCCCC3)cc2)cn1,,"inconclusive: 35.5 µM [falling, single point]"
COC(=O)c1c(NC(=O)CSc2nnc(C)c(=O)[nH]2)sc(C)c1C,inconclusive: 0.906%,
CCC1CCCCN1C(=O)COC(=O)c1ccc(Br)o1 (configuration not stated),inconclusive: 9.76%,
Cc1ccc(N=C2NC(=O)/C(=C/c3cn(C)c4ccccc34)S2)cc1C,inactive,
c1cncc(Nc2nc(-c3cccnc3)cs2)c1,,"inconclusive: 14.1 µM [falling, partial curve, poor fit]"
COC(=O)c1ccc2nc(C(F)(F)F)[nH]c2c1,inconclusive: -14%,
COc1ccc(Cl)cc1CN1CCOCC1,inconclusive: 1.81%,
COc1ccc(-c2ccc(=O)n(CC(=O)NCC3COCCO3)n2)cc1 (configuration not stated),inactive,
CCCn1c(SCN2C(=O)c3ccccc3C2=O)nc2cc(Cl)ccc2c1=O,inactive,
CC(C)N(CCc1ccncc1)C(=S)Nc1cccc(Cl)c1,inconclusive: 13%,
COc1cccc(-c2cc3c(=O)n(-c4ccccc4)c(=S)[nH]c3s2)c1,inconclusive: 7.31%,
Cc1ccc(S(=O)(=O)Nc2ccc3oc(=O)sc3c2)c(C)c1,inconclusive: -9.61%,
COc1ccc(NC(=O)c2ccc([N+](=O)[O-])s2)c([N+](=O)[O-])c1,inconclusive: 13.4%,
O=S(=O)(c1cccc(S(=O)(=O)N2CCCC2)c1)c1cccc(S(=O)(=O)N2CCCC2)c1,inactive,
N#Cc1c(Cl)nc(SCc2ccccc2)nc1-c1ccccc1,inconclusive: -13.1%,
CNC(=O)COc1ncnc2sccc12,inconclusive: 0.24%,
O=C(Nc1cccc(/C=C/c2ccccn2)c1)c1ccc(-n2cncn2)c([N+](=O)[O-])c1,,"inconclusive: 29.1 µM [falling, single point]"

SMILES,"activity change, negative = inhibition",Potency
O=C(COC(=O)C1CC2C=CC1C2)NCc1ccccc1Cl (configuration not stated),inconclusive: -16.1%,
COc1ccc(CN2CCCC(CO)(Cc3ccc(F)cc3)C2)cc1C (configuration not stated),inconclusive: -16.6%,
O=S(=O)(NCc1ccccc1Cl)c1ccc(-n2cccn2)cc1,inactive,
Cc1onc(-c2ccccc2)c1C(=O)N/N=C/c1cccs1,inconclusive: -12.4%,
Cc1ccccc1C(=O)NNC(=O)c1ccc2nc[nH]c2c1,,"inconclusive: 23.1 µM [falling, partial curve, poor fit]"
CCOc1ccc(Nc2oc(-c3ccccc3Cl)nc2C#N)cc1,,"inconclusive: 6.51 µM [falling, single point]"
Cc1ccc(Cn2cccc(NC(=O)NCc3ccccc3)c2=O)cc1,inactive,
CCN(CC(=O)Nc1ccc(C)c(S(=O)(=O)N(C)C)c1)Cc1ccccc1,inconclusive: 2.69%,
Cc1ccc(-n2cnc(N)c2C(=O)c2cccc([N+](=O)[O-])c2)cc1,inconclusive: -5.39%,
COc1ccc(NC(=O)c2oc3ccc(S(=O)(=O)N4CCC5(CC4)OCCO5)cc3c2C)cc1,,"inconclusive: 20.6 µM [falling, single point]"
Cc1nc2c(C(=O)NCc3ccc4c(c3)OCO4)c[nH]n2c(=O)c1Cl,inactive,
Cc1cc(C)cc(C(=O)OCC(=O)Nc2cccc(S(=O)(=O)NC3=NCCCCC3)c2)c1,,"inconclusive: 23.1 µM [falling, partial curve, poor fit]"
CC(=O)c1ccc(NC(=S)N2CCN(CCN3C(=O)c4cccc5cccc(c45)C3=O)CC2)cc1,inconclusive: 5.62%,
COc1ccccc1C(=O)NNC(=O)c1ccc(C)cc1,,"inconclusive: 22.4 µM [falling, single point]"
O=C(Nc1ccc2[nH]ncc2c1)c1ccccc1,,"inconclusive: 22.4 µM [falling, single point]"
COc1cc(-c2nc3ccccn3c2NCc2ccccc2)ccc1SC1CCCCC1,,"inconclusive: 14.6 µM [rising, single point]"
CCCCOC(=O)Nc1cccc(Cl)c1C,,"inconclusive: 23.1 µM [falling, single point]"
Cc1ccc2ccc(C(Nc3cccc(C(F)(F)F)c3)c3cccnc3)c(O)c2n1 (configuration not stated),,"inconclusive: 22.4 µM [falling, single point]"
Cc1[nH]nc(S(=O)CC(=O)O)c1[N+](=O)[O-] (configuration not stated),,"inconclusive: 15.8 µM [falling, partial curve]"
COC(=O)Cc1ccc(NC(=S)N2CCN(c3cccc(O)c3)CC2)cc1,inconclusive: 2.55%,
O=[N+]([O-])c1cccc(-c2nc(-c3ccccc3)no2)c1,inconclusive: 0.469%,

SMILES,"activity change, negative = inhibition",Potency
Cn1c(=O)n(C)c2cc(S(=O)(=O)Nc3cc(Cl)ccc3O)ccc21,inconclusive: 4.46%,
O=C(Nc1nccs1)c1ccc(-c2ccc(Cl)cc2)o1,inconclusive: 1.03%,
CCc1ccc(NC(=S)NCc2ccccc2)cc1,inactive,
O=C(NCc1cc(Br)cc(Br)c1OC(=O)c1ccccc1[N+](=O)[O-])c1ccccc1,inconclusive: 22%,
O=C(O)/C=C\C(=O)Nc1ccccc1C#Cc1ccc(Br)cc1,,"inconclusive: 18.4 µM [falling, single point]"
O=C(Nc1ccc(Nc2ccccc2)cc1)c1cc([N+](=O)[O-])ccc1Cl,,"inconclusive: 11.2 µM [falling, partial curve]"
CCS(=O)(=O)Nc1ccc(C2=NN(C(=O)c3ccco3)C(c3ccco3)C2)cc1 (configuration not stated),inconclusive: -12.9%,
NNc1nc2c(Cl)c(Cl)ccc2s1,,"inconclusive: 20.6 µM [falling, partial curve]"
CC(=O)N1c2ccc(S(=O)(=O)NCCC(=O)N3CCCC(C)C3)cc2CC1C (configuration not stated),inactive,
COc1nc(NCc2ccco2)nc(N2CCC(C)CC2)n1,inconclusive: 2.37%,
O=C(NCCc1ccccc1)c1cnc2ccccc2n1,,"inconclusive: 20 µM [falling, single point]"
COc1ccc(C(=O)NCCc2ccccc2)cc1OC,,"inconclusive: 14.1 µM [falling, partial curve, poor fit]"
Cc1ccc2cc(C)c3nnc(SCC(=O)c4cccs4)n3c2c1C,inconclusive: -0.981%,
COc1ccc(-n2cc(-c3ccccc3)c3c(N4CCN(CCO)CC4)ncnc32)cc1,inconclusive: -7.75%,
COc1ccccc1NNC(=O)C(O)(c1ccccc1)c1ccccc1,inactive,
O=C(NC(=S)Nc1cccc(O)c1)c1ccco1,,"inconclusive: 31.6 µM [falling, single point]"
COC(=O)c1ccsc1NC(=O)CCS(=O)(=O)c1ccc(Cl)cc1,inconclusive: -22.7%,
O=C(COc1ccc(/C=N/NC(=O)c2cccnc2)cc1)Nc1ccccc1,inconclusive: -14.7%,
CCC(NC(=O)c1ccccc1NC(=O)c1ccc(OC)cc1)C(=O)N1CCCC1 (configuration not stated),inactive,

# 21 of these compounds in a different format.
SMILES	activity change, negative = inhibition	Potency
O=C(CC1CCCC1)N1CCN(S(=O)(=O)c2ccccc2)CC1	inactive	
O=S(=O)(c1ccc2c(c1)OCCO2)N1CCC(n2nnc3cc(F)ccc32)CC1	inactive	
CCNS(=O)(=O)c1c(C)cc(C)c(N(C)S(=O)(=O)c2ccccc2)c1C	inconclusive: 12.7%	
N#CC1=C(N)Oc2c(ccc3cccnc23)C1c1cccnc1 (configuration not stated)	inconclusive: -10.7%	
Cc1ccc(N2CC(NC(=O)/C=C\c3ccc4c(c3)OCO4)CC2=O)cc1C (configuration not stated)	inconclusive: 1.92%	
Cc1ccc(NC(=O)Nc2ccc3c(c2)OCO3)nc1	inconclusive: 2.93%	
CCOc1ccc(NS(=O)(=O)c2ccc(C(=O)N(C)CC(=O)Nc3ccc(OC)cc3)cc2)cc1	inconclusive: 13.4%	
COC(=O)c1c(NC(=O)CSc2nnc(C)c(=O)[nH]2)sc(C)c1C	inconclusive: 0.906%	
CCC1CCCCN1C(=O)COC(=O)c1ccc(Br)o1 (configuration not stated)	inconclusive: 9.76%	
c1cncc(Nc2nc(-c3cccnc3)cs2)c1		inconclusive: 14.1 µM [falling, partial curve, poor fit]
COC(=O)c1ccc2nc(C(F)(F)F)[nH]c2c1	inconclusive: -14%	
O=S(=O)(c1cccc(S(=O)(=O)N2CCCC2)c1)c1cccc(S(=O)(=O)N2CCCC2)c1	inactive	
N#Cc1c(Cl)nc(SCc2ccccc2)nc1-c1ccccc1	inconclusive: -13.1%	
O=C(Nc1cccc(/C=C/c2ccccn2)c1)c1ccc(-n2cncn2)c([N+](=O)[O-])c1		inconclusive: 29.1 µM [falling, single point]
CCOc1ccc(Nc2oc(-c3ccccc3Cl)nc2C#N)cc1		inconclusive: 6.51 µM [falling, single point]
COc1ccc(NC(=O)c2oc3ccc(S(=O)(=O)N4CCC5(CC4)OCCO5)cc3c2C)cc1		inconclusive: 20.6 µM [falling, single point]
CCCCOC(=O)Nc1cccc(Cl)c1C		inconclusive: 23.1 µM [falling, single point]
Cn1c(=O)n(C)c2cc(S(=O)(=O)Nc3cc(Cl)ccc3O)ccc21	inconclusive: 4.46%	
O=C(Nc1nccs1)c1ccc(-c2ccc(Cl)cc2)o1	inconclusive: 1.03%	
COc1ccc(C(=O)NCCc2ccccc2)cc1OC		inconclusive: 14.1 µM [falling, partial curve, poor fit]
COc1ccccc1NNC(=O)C(O)(c1ccccc1)c1ccccc1	inactive	
